Reference: the supplement of paper PMC10849652
Some of the results follow.

Protein sequences, listed by entry. Tags and fused reporters are not part of them. Lines headed by an entry give the natural chain unless they say otherwise; changes in a name come on top.
UniProt P02042: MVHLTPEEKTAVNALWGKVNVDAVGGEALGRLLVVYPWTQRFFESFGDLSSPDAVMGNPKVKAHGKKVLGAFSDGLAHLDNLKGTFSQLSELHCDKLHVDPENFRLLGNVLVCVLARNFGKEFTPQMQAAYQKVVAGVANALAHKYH
UniProt Q9P0R6: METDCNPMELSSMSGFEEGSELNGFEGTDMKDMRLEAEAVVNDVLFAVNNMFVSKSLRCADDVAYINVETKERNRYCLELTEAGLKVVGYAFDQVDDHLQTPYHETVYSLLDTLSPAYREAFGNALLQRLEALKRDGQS
UniProt Q9NVX0: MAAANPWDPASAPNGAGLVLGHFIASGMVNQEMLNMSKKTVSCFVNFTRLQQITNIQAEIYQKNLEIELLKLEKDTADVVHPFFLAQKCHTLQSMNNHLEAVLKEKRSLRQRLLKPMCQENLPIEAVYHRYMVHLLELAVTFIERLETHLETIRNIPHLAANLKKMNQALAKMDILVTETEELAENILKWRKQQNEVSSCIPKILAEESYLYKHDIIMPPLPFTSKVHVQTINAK
UniProt P69892: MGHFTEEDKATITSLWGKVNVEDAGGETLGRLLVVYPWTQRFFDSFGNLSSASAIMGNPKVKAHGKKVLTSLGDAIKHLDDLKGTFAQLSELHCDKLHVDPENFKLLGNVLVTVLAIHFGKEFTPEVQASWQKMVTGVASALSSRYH
UniProt Q9H583: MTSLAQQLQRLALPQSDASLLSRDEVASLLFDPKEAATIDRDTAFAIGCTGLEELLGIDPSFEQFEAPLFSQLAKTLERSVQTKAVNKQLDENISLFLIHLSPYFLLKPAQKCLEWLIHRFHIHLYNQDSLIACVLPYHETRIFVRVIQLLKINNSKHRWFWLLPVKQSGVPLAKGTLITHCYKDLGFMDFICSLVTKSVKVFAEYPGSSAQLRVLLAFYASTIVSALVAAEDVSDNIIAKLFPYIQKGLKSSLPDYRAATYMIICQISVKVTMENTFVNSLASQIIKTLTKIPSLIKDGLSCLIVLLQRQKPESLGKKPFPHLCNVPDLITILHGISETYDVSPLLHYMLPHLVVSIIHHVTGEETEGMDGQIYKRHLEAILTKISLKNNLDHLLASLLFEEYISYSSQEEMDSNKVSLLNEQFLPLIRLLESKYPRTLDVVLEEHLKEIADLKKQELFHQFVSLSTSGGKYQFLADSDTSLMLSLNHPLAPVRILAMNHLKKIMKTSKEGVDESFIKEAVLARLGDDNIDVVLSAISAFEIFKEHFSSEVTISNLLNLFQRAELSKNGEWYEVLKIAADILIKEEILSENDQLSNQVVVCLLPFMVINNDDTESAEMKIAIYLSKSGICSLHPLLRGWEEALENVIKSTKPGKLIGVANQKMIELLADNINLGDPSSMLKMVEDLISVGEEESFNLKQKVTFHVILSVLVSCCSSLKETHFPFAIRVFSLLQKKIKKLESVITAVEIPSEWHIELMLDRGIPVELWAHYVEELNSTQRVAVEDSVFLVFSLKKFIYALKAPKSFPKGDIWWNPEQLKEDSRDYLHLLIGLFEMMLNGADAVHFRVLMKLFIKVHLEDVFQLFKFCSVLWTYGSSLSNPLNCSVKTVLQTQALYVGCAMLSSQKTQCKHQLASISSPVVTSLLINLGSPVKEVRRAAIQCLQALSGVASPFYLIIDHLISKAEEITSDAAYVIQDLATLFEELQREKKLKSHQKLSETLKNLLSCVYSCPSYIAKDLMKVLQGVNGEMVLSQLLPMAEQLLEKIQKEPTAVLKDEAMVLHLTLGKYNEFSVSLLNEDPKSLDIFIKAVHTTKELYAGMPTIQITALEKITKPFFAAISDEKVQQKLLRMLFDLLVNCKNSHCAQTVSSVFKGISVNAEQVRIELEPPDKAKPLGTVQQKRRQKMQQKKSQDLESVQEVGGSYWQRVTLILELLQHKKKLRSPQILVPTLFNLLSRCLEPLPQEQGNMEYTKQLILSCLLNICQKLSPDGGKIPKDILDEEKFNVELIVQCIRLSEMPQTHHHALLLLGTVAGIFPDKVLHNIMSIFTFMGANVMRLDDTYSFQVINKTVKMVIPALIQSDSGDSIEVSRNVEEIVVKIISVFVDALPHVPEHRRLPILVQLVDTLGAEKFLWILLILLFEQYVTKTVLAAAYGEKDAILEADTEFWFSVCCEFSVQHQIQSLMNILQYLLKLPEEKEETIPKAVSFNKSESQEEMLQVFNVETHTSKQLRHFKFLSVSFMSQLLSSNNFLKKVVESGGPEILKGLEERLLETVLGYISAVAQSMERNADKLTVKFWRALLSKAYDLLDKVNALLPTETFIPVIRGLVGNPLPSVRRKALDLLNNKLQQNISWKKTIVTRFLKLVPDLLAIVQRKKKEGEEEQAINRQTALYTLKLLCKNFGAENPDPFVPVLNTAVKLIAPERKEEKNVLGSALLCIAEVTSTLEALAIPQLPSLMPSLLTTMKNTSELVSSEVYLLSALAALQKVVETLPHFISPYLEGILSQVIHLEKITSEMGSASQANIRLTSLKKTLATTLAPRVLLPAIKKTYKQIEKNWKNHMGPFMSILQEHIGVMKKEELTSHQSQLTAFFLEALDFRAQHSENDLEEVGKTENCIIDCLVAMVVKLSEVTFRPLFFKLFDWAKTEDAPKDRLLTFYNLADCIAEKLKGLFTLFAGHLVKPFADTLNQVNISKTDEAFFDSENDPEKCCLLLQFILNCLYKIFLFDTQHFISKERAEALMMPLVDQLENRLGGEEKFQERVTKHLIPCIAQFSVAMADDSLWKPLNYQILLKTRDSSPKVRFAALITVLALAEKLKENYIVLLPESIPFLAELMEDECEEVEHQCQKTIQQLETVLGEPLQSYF
UniProt O15379: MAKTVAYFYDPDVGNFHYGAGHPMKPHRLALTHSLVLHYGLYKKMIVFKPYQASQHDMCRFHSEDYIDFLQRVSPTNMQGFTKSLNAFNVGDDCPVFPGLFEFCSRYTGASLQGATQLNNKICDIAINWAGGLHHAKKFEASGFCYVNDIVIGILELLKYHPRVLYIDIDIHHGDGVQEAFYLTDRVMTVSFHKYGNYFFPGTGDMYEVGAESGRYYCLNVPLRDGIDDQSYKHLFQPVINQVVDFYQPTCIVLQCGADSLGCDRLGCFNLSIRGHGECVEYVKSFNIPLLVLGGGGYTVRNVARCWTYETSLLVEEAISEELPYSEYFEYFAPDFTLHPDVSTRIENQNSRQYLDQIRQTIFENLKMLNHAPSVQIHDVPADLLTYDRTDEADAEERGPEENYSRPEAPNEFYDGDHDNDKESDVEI
UniProt Q969F1: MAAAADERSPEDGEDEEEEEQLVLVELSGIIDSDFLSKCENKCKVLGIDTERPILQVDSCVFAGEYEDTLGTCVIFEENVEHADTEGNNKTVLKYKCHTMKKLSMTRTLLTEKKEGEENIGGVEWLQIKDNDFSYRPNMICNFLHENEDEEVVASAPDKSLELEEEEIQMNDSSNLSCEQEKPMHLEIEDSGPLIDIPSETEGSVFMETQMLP
UniProt P0C0S5, whole entry, looked up: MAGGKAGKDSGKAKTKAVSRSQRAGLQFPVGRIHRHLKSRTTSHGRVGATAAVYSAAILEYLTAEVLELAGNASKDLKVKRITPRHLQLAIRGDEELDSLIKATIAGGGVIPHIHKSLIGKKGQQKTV
UniProt Q13547, whole entry, looked up: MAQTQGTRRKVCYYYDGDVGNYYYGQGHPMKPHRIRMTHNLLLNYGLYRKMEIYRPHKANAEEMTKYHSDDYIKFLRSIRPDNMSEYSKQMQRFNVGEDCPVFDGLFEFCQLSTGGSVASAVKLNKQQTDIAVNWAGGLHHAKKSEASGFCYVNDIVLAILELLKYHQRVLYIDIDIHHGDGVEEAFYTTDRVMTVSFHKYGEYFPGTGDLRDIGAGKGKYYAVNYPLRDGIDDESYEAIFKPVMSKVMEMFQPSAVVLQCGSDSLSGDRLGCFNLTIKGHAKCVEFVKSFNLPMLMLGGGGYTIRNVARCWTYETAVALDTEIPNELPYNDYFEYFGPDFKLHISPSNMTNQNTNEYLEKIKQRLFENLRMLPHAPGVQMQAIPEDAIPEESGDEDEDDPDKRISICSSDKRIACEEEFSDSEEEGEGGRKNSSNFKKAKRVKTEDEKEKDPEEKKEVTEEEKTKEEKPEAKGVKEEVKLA
UniProt Q86XA9: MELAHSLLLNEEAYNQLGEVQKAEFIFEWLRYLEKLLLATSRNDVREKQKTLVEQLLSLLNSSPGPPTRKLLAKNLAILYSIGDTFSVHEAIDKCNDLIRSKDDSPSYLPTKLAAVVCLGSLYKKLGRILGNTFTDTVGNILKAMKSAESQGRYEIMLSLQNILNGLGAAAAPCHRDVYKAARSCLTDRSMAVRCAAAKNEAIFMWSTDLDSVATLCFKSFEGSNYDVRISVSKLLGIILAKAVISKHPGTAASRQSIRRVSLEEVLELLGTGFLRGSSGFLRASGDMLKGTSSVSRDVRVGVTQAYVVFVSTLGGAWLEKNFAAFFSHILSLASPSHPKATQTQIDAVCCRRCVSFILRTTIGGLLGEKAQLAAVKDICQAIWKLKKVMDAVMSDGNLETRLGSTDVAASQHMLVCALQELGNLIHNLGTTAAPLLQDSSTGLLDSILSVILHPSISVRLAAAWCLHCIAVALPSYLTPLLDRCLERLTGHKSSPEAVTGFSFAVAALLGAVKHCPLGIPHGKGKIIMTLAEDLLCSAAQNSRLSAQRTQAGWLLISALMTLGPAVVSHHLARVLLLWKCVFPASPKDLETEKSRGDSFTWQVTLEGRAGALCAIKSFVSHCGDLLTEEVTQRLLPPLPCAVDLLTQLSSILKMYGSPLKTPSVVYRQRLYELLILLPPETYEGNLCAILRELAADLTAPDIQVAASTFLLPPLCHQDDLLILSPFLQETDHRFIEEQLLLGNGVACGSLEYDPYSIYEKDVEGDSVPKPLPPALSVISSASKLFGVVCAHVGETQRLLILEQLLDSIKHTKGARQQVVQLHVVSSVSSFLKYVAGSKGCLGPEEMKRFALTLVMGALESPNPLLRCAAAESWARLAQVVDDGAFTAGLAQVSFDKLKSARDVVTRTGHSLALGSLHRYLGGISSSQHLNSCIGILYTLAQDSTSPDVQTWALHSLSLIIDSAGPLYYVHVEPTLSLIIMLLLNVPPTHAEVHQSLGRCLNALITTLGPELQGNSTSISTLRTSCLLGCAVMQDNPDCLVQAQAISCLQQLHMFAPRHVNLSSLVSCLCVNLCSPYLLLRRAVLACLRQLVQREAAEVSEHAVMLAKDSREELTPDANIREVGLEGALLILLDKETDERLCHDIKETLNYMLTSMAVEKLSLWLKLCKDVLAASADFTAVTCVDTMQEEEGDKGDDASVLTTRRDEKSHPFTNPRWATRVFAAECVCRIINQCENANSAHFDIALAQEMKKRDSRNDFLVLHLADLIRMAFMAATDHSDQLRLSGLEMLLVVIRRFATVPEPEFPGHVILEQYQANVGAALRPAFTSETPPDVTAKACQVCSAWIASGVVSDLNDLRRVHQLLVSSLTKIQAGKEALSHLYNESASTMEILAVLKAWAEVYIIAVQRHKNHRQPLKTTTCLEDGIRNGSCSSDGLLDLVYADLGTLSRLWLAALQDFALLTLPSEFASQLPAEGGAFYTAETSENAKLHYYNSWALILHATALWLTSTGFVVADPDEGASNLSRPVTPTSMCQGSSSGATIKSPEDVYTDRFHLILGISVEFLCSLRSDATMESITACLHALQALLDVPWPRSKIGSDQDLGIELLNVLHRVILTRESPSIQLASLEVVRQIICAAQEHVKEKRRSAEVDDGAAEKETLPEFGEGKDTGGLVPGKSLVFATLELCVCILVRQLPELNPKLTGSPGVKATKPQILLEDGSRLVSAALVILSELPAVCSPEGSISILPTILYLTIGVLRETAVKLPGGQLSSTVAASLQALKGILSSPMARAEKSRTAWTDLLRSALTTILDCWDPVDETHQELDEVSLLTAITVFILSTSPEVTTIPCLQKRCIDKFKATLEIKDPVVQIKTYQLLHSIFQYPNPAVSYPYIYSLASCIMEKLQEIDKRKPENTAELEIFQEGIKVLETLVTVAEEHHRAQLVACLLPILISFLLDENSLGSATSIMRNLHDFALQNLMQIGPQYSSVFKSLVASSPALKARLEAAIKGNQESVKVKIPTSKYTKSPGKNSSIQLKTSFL
UniProt Q9BQ67, whole entry, looked up: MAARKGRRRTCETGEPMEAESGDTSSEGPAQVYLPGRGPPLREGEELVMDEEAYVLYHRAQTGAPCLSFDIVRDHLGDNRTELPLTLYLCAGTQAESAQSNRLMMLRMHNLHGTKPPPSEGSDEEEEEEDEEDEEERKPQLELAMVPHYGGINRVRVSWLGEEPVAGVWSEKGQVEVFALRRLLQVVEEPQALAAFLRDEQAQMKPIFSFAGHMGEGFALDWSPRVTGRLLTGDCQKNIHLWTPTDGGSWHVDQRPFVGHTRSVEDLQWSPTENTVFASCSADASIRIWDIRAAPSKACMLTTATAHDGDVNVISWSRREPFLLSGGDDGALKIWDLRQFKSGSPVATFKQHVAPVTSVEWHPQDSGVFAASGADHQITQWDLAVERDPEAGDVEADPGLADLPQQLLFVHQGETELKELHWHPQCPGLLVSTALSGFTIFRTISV

Each target was assayed with Cc1nc(Nc2n[nH]c3c2CN(C(=O)N[C@H](CN(C)C)c2ccccc2)C3(C)C)c2sccc2n1 (assay: log2 fold change, soluble protein after heating vs DMSO (PISA); higher = thermal stabilisation; K562 lysate, 10 uM; active = over 0.2 and 3.5 SD of the protein, either way, in both replicates (recomputed)).
Outline: (§1)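 Following dounce homogenisation of K562 pellets in PBS pH 7.4 with 1 mM MgCl2, crude extract at 1 mg/mL protein was incubated for 30 min with 10 μM compound. Aliquots were then heated for 3 min over 48°C-58°C and pooled, NP-40 was added to 0.5% at 4°C, and soluble protein was recovered as the supernatant at 21,000xg for 90 min. Channel-sum-equalised TMTpro 16plex LC-MS/MS quantified this protein. Each value, from duplicates, is a log-two fold change in thermal stability relative to solvent controls.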

log2 fold change, inactive:
HAGH (UniProt Q16775) 0.01
HDGFL2 isoform 2 (UniProt Q7Z4V5) -0.005
GTPBP2 (UniProt Q9BX10) -0.009
H1FX (UniProt Q92522) -0.02
GSTZ1 (UniProt G3V4T6) 0.009
HBG1 (UniProt P69891) -0.018
H4C1 (UniProt P62805) -0.027
GSTO1 (UniProt P78417) 0.006
GSR (UniProt P00390) 0.032
HBD (UniProt P02042) 0.028
HADHA (UniProt P40939) -0.024
GSKIP (UniProt Q9P0R6) -0.036
HADH isoform 2 (UniProt Q16836) 0.049
GRAP2 (UniProt O75791) 0.007
HAUS2 (UniProt Q9NVX0) -0.033
HBG2 (UniProt P69892) 0.013
GTF3C3 (UniProt Q9Y5Q9) 0.052
GYS1 (UniProt P13807) 0.011
HADHB (UniProt P55084) -0.028
GPX4 (UniProt P36969) -0.001
HEATR1 (UniProt Q9H583) -0.006
HDLBP, A0A024R4E5 0.006
GTF2F2 (UniProt P13984) -0.024
GSTM3 (UniProt P21266) -0.09
HDAC3 (UniProt O15379) -0.019
GTF2H3 (UniProt Q13889) 0.002
HDAC6 (UniProt Q9UBN7) -0.016
HBS1L isoform 2 (UniProt Q9Y450) -0.028
GRHPR (UniProt Q9UBQ7) -0.008
HAUS3 (UniProt Q68CZ6) -0.027
GTF3C6 (UniProt Q969F1) 0.014
GTF2A1 (UniProt P52655) -0.047
H2AZ1 (UniProt P0C0S5) -0.007
GXYLT1 (UniProt Q4G148) -0.147
HDHD2 (UniProt Q9H0R4) -0.052
HDAC1 (UniProt Q13547) -0.024
HEATR5A (UniProt Q86XA9) 0.029
GTF2E2 (UniProt P29084) -0.01
GRWD1 (UniProt Q9BQ67) 0.051

These targets were tested with Cc1nc(Nc2ncc(C(=O)Nc3c(C)cccc3Cl)s2)cc(N2CCN(CCO)CC2)n1 [dasatinib] in the same assay as above.
Outline: as §1

log2 fold change, inactive:
HAGH (UniProt Q16775) -0.017
HDGFL2 isoform 2 (UniProt Q7Z4V5) 0.014
GTPBP2 (UniProt Q9BX10) -0.023
H1FX (UniProt Q92522) 0.017
GSTZ1 (UniProt G3V4T6) -0.024
HBG1 (UniProt P69891) 0.024
H4C1 (UniProt P62805) -0.063
GSTO1 (UniProt P78417) 0.04
GSR (UniProt P00390) 0.029
HBD (UniProt P02042) 0.039
HADHA (UniProt P40939) -0.036
GSKIP (UniProt Q9P0R6) -0.056
GRAP2 (UniProt O75791) 0.032
HAUS2 (UniProt Q9NVX0) -0.028
HBG2 (UniProt P69892) 0.031
GTF3C3 (UniProt Q9Y5Q9) 0.008
GYS1 (UniProt P13807) 0.055
HADHB (UniProt P55084) -0.026
GPX4 (UniProt P36969) 0.01
HEATR1 (UniProt Q9H583) -0.05
HDLBP, A0A024R4E5 -0.038
GTF2F2 (UniProt P13984) 0.053
GSTM3 (UniProt P21266) -0.12
HDAC3 (UniProt O15379) 0.04
GTF2H3 (UniProt Q13889) 0.001
HDAC6 (UniProt Q9UBN7) -0.06
HBS1L isoform 2 (UniProt Q9Y450) 0.01
GRHPR (UniProt Q9UBQ7) -0.044
HAUS3 (UniProt Q68CZ6) -0.075
GTF3C6 (UniProt Q969F1) 0.068
GTF2A1 (UniProt P52655) 0.022
H2AZ1 (UniProt P0C0S5) -0.018
GXYLT1 (UniProt Q4G148) 0.025
HDHD2 (UniProt Q9H0R4) 0.031
HDAC1 (UniProt Q13547) -0.021
HEATR5A (UniProt Q86XA9) 0.018
GTF2E2 (UniProt P29084) -0.005
GRWD1 (UniProt Q9BQ67) 0

log2 fold change, active:
HADH isoform 2 (UniProt Q16836) 0.288
